The values that follow come from article doi:10.1101/2025.08.14.670437.

The chains behind the UniProt entries cited, without tags or fusion partners.
UniProt Q96PV6: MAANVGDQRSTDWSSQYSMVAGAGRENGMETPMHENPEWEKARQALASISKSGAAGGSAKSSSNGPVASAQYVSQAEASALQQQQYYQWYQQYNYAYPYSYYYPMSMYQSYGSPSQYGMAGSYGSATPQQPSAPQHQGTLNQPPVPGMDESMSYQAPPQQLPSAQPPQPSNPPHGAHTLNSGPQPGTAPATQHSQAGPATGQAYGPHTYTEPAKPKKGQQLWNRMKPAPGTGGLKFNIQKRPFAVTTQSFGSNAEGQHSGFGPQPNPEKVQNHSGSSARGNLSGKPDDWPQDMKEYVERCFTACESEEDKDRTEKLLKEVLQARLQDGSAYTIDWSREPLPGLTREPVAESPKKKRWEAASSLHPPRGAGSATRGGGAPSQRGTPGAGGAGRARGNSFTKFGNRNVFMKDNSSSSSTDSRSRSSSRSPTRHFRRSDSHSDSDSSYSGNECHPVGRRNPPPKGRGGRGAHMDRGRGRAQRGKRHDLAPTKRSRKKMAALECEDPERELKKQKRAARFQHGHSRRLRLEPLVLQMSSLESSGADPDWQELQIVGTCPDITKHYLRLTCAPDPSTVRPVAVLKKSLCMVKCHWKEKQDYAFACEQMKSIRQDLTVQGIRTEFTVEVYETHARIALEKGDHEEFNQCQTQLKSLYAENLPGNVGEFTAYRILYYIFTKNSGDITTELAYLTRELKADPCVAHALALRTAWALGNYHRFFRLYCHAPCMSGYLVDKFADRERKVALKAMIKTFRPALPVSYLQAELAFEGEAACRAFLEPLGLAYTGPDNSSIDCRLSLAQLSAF
UniProt P49790: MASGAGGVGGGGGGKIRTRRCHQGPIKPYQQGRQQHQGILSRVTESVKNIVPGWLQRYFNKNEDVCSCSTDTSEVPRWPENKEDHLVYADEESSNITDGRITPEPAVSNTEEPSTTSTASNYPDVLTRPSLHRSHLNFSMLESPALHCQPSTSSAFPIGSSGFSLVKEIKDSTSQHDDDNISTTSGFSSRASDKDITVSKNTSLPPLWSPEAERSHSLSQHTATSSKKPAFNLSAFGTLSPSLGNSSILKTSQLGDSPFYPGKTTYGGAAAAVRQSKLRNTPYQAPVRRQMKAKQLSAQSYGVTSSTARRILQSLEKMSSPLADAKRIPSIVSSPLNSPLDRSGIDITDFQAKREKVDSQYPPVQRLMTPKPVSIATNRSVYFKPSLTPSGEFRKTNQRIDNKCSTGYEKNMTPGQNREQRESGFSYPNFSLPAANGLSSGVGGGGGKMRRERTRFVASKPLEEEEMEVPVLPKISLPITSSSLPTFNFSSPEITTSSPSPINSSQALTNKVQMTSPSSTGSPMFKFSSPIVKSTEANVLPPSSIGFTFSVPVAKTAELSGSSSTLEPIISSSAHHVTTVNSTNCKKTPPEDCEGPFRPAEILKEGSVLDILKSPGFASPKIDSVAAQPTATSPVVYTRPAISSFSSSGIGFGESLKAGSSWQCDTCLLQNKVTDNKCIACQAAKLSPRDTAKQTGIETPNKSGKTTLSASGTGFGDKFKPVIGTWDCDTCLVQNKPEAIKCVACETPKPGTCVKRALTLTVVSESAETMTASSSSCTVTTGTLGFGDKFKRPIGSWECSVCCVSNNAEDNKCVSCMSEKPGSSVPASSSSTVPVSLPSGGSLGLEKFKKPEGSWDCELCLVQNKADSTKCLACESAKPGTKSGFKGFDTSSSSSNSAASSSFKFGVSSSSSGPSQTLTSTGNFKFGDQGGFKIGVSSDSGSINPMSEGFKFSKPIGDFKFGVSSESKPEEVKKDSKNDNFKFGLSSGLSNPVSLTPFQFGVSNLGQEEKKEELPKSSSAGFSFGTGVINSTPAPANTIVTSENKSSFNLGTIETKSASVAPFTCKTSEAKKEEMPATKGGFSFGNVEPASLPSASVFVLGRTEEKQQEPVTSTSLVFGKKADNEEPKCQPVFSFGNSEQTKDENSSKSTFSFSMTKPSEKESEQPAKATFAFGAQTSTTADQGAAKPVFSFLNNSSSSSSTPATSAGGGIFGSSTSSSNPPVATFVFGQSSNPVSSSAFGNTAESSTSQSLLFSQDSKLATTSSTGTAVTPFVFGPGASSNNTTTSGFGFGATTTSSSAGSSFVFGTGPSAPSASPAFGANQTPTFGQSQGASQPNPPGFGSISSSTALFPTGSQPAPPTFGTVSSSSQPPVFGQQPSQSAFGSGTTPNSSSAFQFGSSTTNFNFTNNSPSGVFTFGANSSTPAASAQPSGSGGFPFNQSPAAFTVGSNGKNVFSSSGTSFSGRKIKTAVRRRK

To fix the notation:
B1: ENY2 (protein, UniProt Q9NPA8 1-101)
chain: MVVSKMNKDAQMRAAINQKLIETGERERLKELLRAKLIECGWKDQLKAHCKEVIKEKGLEHVTVDDLVAEITPKGRALVPDSVKKELLQRIRTFLAQHASL
B2: CETN3 (protein, UniProt O15182 1-167)
chain: MSLALRSELVVDKTKRKKRRELSEEQKQEIKDAFELFDTDKDEAIDYHELKVAMRALGFDVKKADVLKILKDYDREATGKITFEDFNEVVTDWILERDPHEEILKAFKLFDDDDSGKISLRNLRRVARELGENMSDEELRAMIEEFDKDGDGEINQEEFIAIMTGDI
B3: NUP50 (protein, UniProt Q9UKX7 1-468)
chain: MAKRNAEKELTDRNWDQEDEAEEVGTFSMASEEVLKNRAIKKAKRRNVGFESDTGGAFKGFKGLVVPSGGGRFSGFGSGAGGKPLEGLSNGNNITSAPPFASAKAAADPKVAFGSLAANGPTTLVDKVSNPKTNGDSQQPSSSGLASSKACVGNAYHKQLAALNCSVRDWIVKHVNTNPLCDLTPIFKDYEKYLANIEQQHGNSGRNSESESNKVAAETQSPSLFGSTKLQQESTFLFHGNKTEDTPDKKMEVASEKKTDPSSLGATSASFNFGKKVDSSVLGSLSSVPLTGFSFSPGNSSLFGKDTTQSKPVSSPFPTKPLEGQAEGDSGECKGGDEEENDEPPKVVVTEVKEEDAFYSKKCKLFYKKDNEFKEKGIGTLHLKPTANQKTQLLVRADTNLGNILLNVLIPPNMPCTRTGKNNVLIVCVPNPPIDEKNATMPVTMLIRVKTSEDADELHKILLEKKDA

No constants are given. Whether binding was seen depends on the method and setting. In cells and extracts the contact can be indirect. These calls come from enrichment with a bait or labelling near it, and not all partners need be listed. A no says only that the protein was not detected with the bait.

The target of this assay is FLAG-LENG8 Full length (human) (UniProt Q96PV6). Briefly: affinity purification with mass spectrometry; FLAG-tagged bait over-expressed in HEK293T; cleared sonicated lysate (20 mM HEPES-NaOH pH 7.9, 150 mM NaCl, 0.2% NP-40) on anti-FLAG M2 agarose, 4 °C, 2 h; eluted with 3× FLAG peptide; hits at Fold Enrichment ≥ 1.5 in both replicates.
NUP153 (from UniProt P49790 1-1475): the binding result was “no binding”.

Take B1: the binding entry is recorded as “no binding”.

In the case of B2, the binding result is “no binding”.

On to B3, for which the binding entry is given as “no binding”.
